Results are given in words; binding and its absence hold for the method and conditions named. Binding calls can cover weak binding; strength is not graded here. Where a sequence is shown, tags or fusion partners need not be part of it. For some of these results: Binding seen in cells or lysates may run through a third protein.
B1: URL1 (UPWARD ROLLED LEAF1), HD-ZIP IV family member RICE OUTERMOST CELL-SPECIFIC 8 (ROC8), yeast two-hybrid fusion (protein, UniProt Q69T58 1-710)
chain: MDFGDEPEGSDSQRRRKRYHRHTPRQIQQLEAMFKECPHPDENQRAQLSRELGLEPRQIKFWFQNRRTQMKAQHERADNCFLRAENDKIRCENIAIREALKNVICPTCGGPPVGEDYFDEQKLRMENARLKEELDRVSNLTSKYLGRPFTQLPPATPPMTVSSLDLSVGGMGGPSLDLDLLSGGSSGIPFQLPAPVSDMERPMMAEMATRAMDELIRLAQAGDHIWSKSPGGGVSGGDARETLNVDTYDSIFSKPGGSYRAPSINVEGSRESGLVLMSAVALADVFMDTNKWMEFFPSIVSKAHTIDVLVNGMGGRSESLILMYEELHIMTPAVPTREVNFVRYCRQIEQGLWAIADVSVDLQRDAHFGAPPPRSRRLPSGCLIADMANGYSKVTWVEHMEVEEKSPINVLYRDLVLSGAAFGAHRWLAALQRACERYASLVALGVPHHIAGVTPEGKRSMMKLSQRMVNSFCSSLGASQMHQWTTLSGSNEVSVRVTMHRSTDPGQPNGVVLSAATSIWLPVPCDHVFAFVRDENTRSQWDVLSHGNQVQEVSRIPNGSNPGNCISLLRGLNASQNSMLILQESCTDASGSLVVYSPIDIPAANVVMSGEDPSSIPLLPSGFTILPDGRPGSAAGASTSSAGPLAAARGGGGGGAGGGSVVTVAFQILVSSLPSSKLNAESVATVNGLITTTVEQIKAALNCSAHGHHP
B2: URL1 (ROC8) fused to the N- or C-terminal part of firefly luciferase (protein, UniProt Q69T58 1-710)
chain: B1 chain
B3: ROC5 (RICE OUTERMOST CELL-SPECIFIC 5), HD-ZIP IV family member, yeast two-hybrid fusion (protein, UniProt Q6EPF0 1-804)
chain: MSFGGLFDGGGGGGMQFPFASGFASSPALSLALDNAGGGIGGRMLGGGAGAGSSAGGAMTRDTEAENDSRSGSDHLDAISAAGEDDVEDAEPSNSRKRKKRYHRHTPQQIQELEALFKECPHPDEKQRAELSRRLSLDARQVKFWFQNRRTQMKTQLERHENALLKQENDKLRAENMTIREAMRSPMCGSCGSPAMLGEVSLEEQHLRIENARLKDELNRVCALATKFLGKPISLLSPPPLLQPHLSLPMPNSSLELAIGGIGGLGSLGTLPGCMNEFAGGVSSPMGTVITPARATGAAIPSLVGNIDRSVFLELAISAMDELVKMAQMDDPLWVPALPGSPSKEVLNFEEYLHSFLPCIGMKPAGYVSEASRESGLVIIDNSLALVETLMDERRWSDMFSCMIAKATVLEEVSTGIAGSRNGALLLMKAELQVLSPLVPIREVTFLRFCKQLAEGAWAVVDVSIDGLVRDHNSGTAPTGGNVKCRRVPSGCVMQDTPNGYCKVTWVEHTEYDEASVHQLYRPLLRSGLAFGARRWLATLQRQCECLAILMSSATVTANDSTAISQEGKRSMLKLARRMTENFCAGVSASSAREWSKLDGATGSIGEDVRVMARKSVSEPGEPPGVVLSAATSVWVPVAPEKLFNFLRDEQLRAEWDILSNGGPMQEMTQIAKGQRDGNSVSLLRASAVSANQSSMLILQETCTDASGSIVVYAPVDIPAMQLVMNGGDSTYVALLPSGFAILPDGPRIGATGYETGGSLLTVAFQILVNNQPTAKLTVESVETVNNLISCTIKKIKTALQCDA
B4: ROC5 fused to the N- or C-terminal part of firefly luciferase (protein, UniProt Q6EPF0 1-804)
chain: B3 chain

How the values were obtained:
[1] = molecular target: N-terminus of TPL2 (TOPLESS co-repressor OsTPL2), yeast two-hybrid fusion (rice (Oryza sativa L.)); assay: two-hybrid; N-terminus of TPL2 as bait in pGBKT7, URL1, URL1mEAR or ROC5 as prey in pGADT7; yeast strain AH109; growth on SD-Leu-Trp-His with 2.5 mM 3-AT (Figure 5E)
[2] = molecular target: N-terminus of TPL2 fused to the N-terminal part of firefly luciferase (rice (Oryza sativa L.)); assay: split reporter; firefly luciferase complementation imaging (LCI); NLUC and CLUC fusions co-expressed by Agrobacterium infiltration in the same N. benthamiana leaf; luciferin sprayed, LUC signal imaged and quantified

| binding [1] | binding [2] | Binder |
| --- | --- | --- |
| binds | – | B1 |
| – | binds | B2 |
| binds | – | B3 |
| – | binds | B4 |
